{"source": "PubChem BioAssay AID540303", "about": "(National Center for Advancing Translational Sciences (NCATS), 2011)", "note": "Among all 330,000 compounds or so, about 1,000 (0.3%) were called active. The inconclusive results got no clear call from the source; some entries with a clear call stand among them for comparison. Calls follow the shape of the dose curve; as a rule, active = well fitted inhibition curve with a large enough effect; inconclusive = small, poorly fitted or top-dose-only effect; inactive = no such curve, though single readings can be large or run the other way; tested in mouse RAW 264.7 cells. A potency beside an inconclusive call is a rough fit, not a confirmed value. % is scaled to controls: 0 for no effect and ±100 for the full control effect; potency is read from the fitted curve at half-maximal effect."}
{"assay": "qHTS for Inhibitors of Cell Surface uPA Generation; also: nearly all actives have a fitted effect of over 55% in size", "conditions": "cell surface uPA generation assay; series mostly up to 38.3 µM; activity change, negative = inhibition: at the top concentration", "procedure,_shortened": "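Validation set in qHTS format. RAW 264.7 cells were pre-plated overnight and then exposed to compounds (up to 38.3 uM final) for 24 h at 37 C in 5% CO2, followed by a luminescent ATP-Lite measurement.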"}
{"smiles": "COc1ccc(SC[C@H](CC(C)C)N2CCN(CCc3ccccc3)CCC2=O)cc1", "Potency": "inconclusive: 7.94 µM [inhibitor, single point]"}
{"smiles": "COc1ccc(C)cc1Nc1n[n+](-c2ccccc2)c(-c2cccc(Cl)c2Cl)s1", "Potency": "inconclusive: 10 µM [inhibitor, partial curve, poor fit]"}
{"smiles": "O=C(Nc1ccccc1Cl)c1csc(-c2cccnc2)n1", "Potency": "inconclusive: 8.91 µM [inhibitor, partial curve, poor fit]"}
{"smiles": "CN(CCNC(=O)C1CCC(=O)N(Cc2ccc(Cl)cc2)C1)CCc1ccccc1", "note": "(centres undefined)", "Potency": "inconclusive: 4.47 µM [inhibitor, full curve, poor fit]"}
{"smiles": "NC1=NC(=O)/C(=C\\c2cc([N+](=O)[O-])ccc2Cl)S1", "Potency": "inconclusive: 10 µM [inhibitor, partial curve, poor fit]"}
{"smiles": "COc1cccc(CCN2CCC(CNS(=O)(=O)c3cc(-c4cc(C)no4)ccc3C)CC2)c1", "Potency": "inconclusive: 12.6 µM [inhibitor, single point]"}
{"smiles": "Cc1noc(C)c1S(=O)(=O)Nc1ccc(C(=O)Nc2ccc(OC(F)(F)F)cc2)cc1", "Potency": "inconclusive: 8.91 µM [inhibitor, single point]"}
{"smiles": "Nc1nc(SCC(=O)N2CCOCC2)[nH]c(=O)c1-c1ccccc1", "activity change, negative = inhibition": "inactive: 1.65%"}
{"smiles": "C=CC(=O)OCCOCCOCCOCCOC(=O)C=C", "Potency": "inconclusive: 1.26 µM [inhibitor, partial curve, poor fit]"}
{"smiles": "CCOc1ccc(CN(CCC#N)C(=S)NC(=O)c2ccccc2)cc1", "Potency": "inconclusive: 10 µM [inhibitor, single point]"}
{"smiles": "CNC(=S)N(CCc1c(C)[nH]c2ccc(Cl)cc12)Cc1cc(OC)c(OC)c(OC)c1", "Potency": "inconclusive: 28.2 µM [inhibitor, single point]"}
{"smiles": "Cc1ccc(NC(=O)C(=O)NCc2ccc(/C=N/NC(=O)c3c(C)nc4ccccn34)o2)cc1", "activity change, negative = inhibition": "inactive: -8.74%"}
{"smiles": "C=CC[n+]1c(-c2ccc(C)cc2)csc1NNC(=O)Nc1ccccc1", "Potency": "inconclusive: 28.2 µM [inhibitor, single point]"}
{"smiles": "CC(C)CC(=O)Nc1ccc(-c2cn3cccnc3n2)cc1", "Potency": "inconclusive: 10 µM [inhibitor, single point]"}
{"smiles": "Nc1ccccc1C(=O)/C=C/c1ccc2c(c1)OCO2", "activity change, negative = inhibition": "inactive: -27.7%"}
{"smiles": "COc1cccc(-n2nc(C#N)c(Cl)cc2=O)c1", "activity change, negative = inhibition": "inactive: -11.2%"}
{"smiles": "CC(C)CC(=O)Nc1cc2c3c(c1)CCN3C(=O)CC2", "Potency": "inconclusive: 12.6 µM [inhibitor, single point]"}
{"smiles": "Cc1cccc(/C=N/Nc2ccc3ccccc3n2)c1", "Potency": "active: 8.91 µM"}
{"smiles": "O=C(Nc1ccc2ccccc2c1)c1ccccc1F", "Potency": "inconclusive: 10 µM [inhibitor, single point]"}
{"smiles": "Clc1ccc(CSCCc2ccncc2)cc1", "activity change, negative = inhibition": "inactive: 0.717%"}
{"smiles": "Cc1cc2cc(CCNC(=O)C(=O)c3c[nH]c4ccccc34)c(=O)[nH]c2cc1C", "activity change, negative = inhibition": "inactive: 5.67%"}
{"smiles": "CCN(CC(=O)NCc1cccs1)C(=O)c1cccc(Cl)c1", "Potency": "inconclusive: 10 µM [inhibitor, single point]"}
{"smiles": "CCOc1ccc(CCN2C(=S)N([C@@H](Cc3ccc(O)cc3)CN3CCCC3CN3C(=S)NC[C@@H]3Cc3ccc(O)cc3)C[C@@H]2CC(C)C)cc1", "note": "(some centres undefined)", "Potency": "inconclusive: 28.2 µM [inhibitor, single point]"}
{"smiles": "CCC(C)CCN1C(N(C)C)=NC[C@@H]1Cc1ccccc1", "note": "(some centres undefined)", "Potency": "inconclusive: 3.55 µM [inhibitor, partial curve, poor fit]"}
{"smiles": "CCS(=O)(=O)N1CCN(C(=O)c2ccco2)CC1", "activity change, negative = inhibition": "inactive: -5.98%"}
{"smiles": "CCOC(=O)CSc1ccc(S(=O)(=O)N(C)C2CCCCC2)cc1[N+](=O)[O-]", "activity change, negative = inhibition": "inactive: 1.81%"}
{"smiles": "COc1cc(/C=C/c2ccc3cccc(OC)c3n2)c(O)c([N+](=O)[O-])c1", "Potency": "inconclusive: 0.0158 µM [inhibitor, full curve, poor fit]"}
{"smiles": "COC(=O)c1cccc(NC(=O)/C=C/c2ccc3c(c2)OCO3)c1", "activity change, negative = inhibition": "inactive: -5.47%"}
{"smiles": "Cc1[nH]n(-c2ccc([N+](=O)[O-])cc2)c(=O)c1C=NCCN1CCN(C(=O)C(C)C)CC1", "Potency": "inconclusive: 1.41 µM [inhibitor, partial curve]"}
{"smiles": "O=C(COC(=O)C1CCN(S(=O)(=O)c2c(Cl)cccc2Cl)CC1)NCc1ccco1", "Potency": "inconclusive: 6.31 µM [inhibitor, partial curve, poor fit]"}
{"smiles": "Cc1ccc2c(c1)C1CN(C)CCC1N2C(=S)NC(=O)c1ccc(Br)cc1", "note": "(centres undefined)", "Potency": "inconclusive: 8.91 µM [inhibitor, single point]"}
{"smiles": "CCC1=Nc2cc(C(=O)NCC3CCCO3)ccc2Sc2ccc(Br)cc21", "note": "(centres undefined)", "Potency": "inconclusive: 3.16 µM [inhibitor, full curve]"}
{"smiles": "CCN(c1ccccc1)S(=O)(=O)c1ccc(C(=O)Nc2nnc(-c3ccco3)o2)cc1", "Potency": "inconclusive: 10 µM [inhibitor, partial curve, poor fit]"}
{"smiles": "O=c1oc(CCCO)cc2ccc(C#Cc3ccsc3)cc12", "Potency": "inconclusive: 8.91 µM [inhibitor, single point]"}
{"smiles": "CC(=O)Nc1ccc2nc(C3CC3)n(Cc3ccc(Cl)cc3)c(=O)c2c1", "Potency": "inconclusive: 8.91 µM [inhibitor, partial curve, poor fit]"}
{"smiles": "O=C(N/N=C/c1c(Cl)nc2ccccn2c1=O)c1cccnc1", "Potency": "inconclusive: 31.6 µM [inhibitor, partial curve, poor fit]"}
{"smiles": "Cc1cc(C(=O)CN2C(=O)c3ccccc3C2=O)c(C)n1Cc1cccs1", "Potency": "inconclusive: 4.47 µM [inhibitor, partial curve]"}
{"smiles": "COCCCNc1nnc(Cc2ccc(Cl)cc2)c(=O)[nH]1", "Potency": "inconclusive: 0.501 µM [inhibitor, full curve, poor fit]"}
{"smiles": "CCOc1ccc(OCCC(=O)OCC(=O)N2CCN(S(=O)(=O)c3ccc(C)cc3)CC2)cc1", "Potency": "inconclusive: 7.94 µM [inhibitor, partial curve, poor fit]"}
{"smiles": "CCc1ccc(C(=O)N/N=C(\\C)c2ccncc2)s1", "activity change, negative = inhibition": "inactive: -4.37%"}
{"smiles": "COc1ccc(C(CNC(=O)c2cccc(S(=O)(=O)N3CCCC(C)C3)c2)N(C)C)cc1", "note": "(centres undefined)", "Potency": "inconclusive: 10 µM [inhibitor, single point]"}
{"smiles": "COc1ccc(C(C)(C)C)cc1NC(=O)c1cc(S(=O)(=O)N(C)C)ccc1N1CCCC1", "Potency": "inconclusive: 2.82 µM [inhibitor, partial curve, poor fit]"}
{"smiles": "O=C(Nc1ccc(N2CCCC2)cc1)c1cc(Cl)ccc1Cl", "Potency": "inconclusive: 5.62 µM [inhibitor, partial curve]"}
{"smiles": "COc1ccc(CCN(C)CC(O)COC(c2ccc(F)cc2)c2ccc(F)cc2)cc1OC", "note": "(centres undefined)", "activity change, negative = inhibition": "inactive: -6.63%"}
{"smiles": "CC(C)c1ccc(NC(=O)c2cccc(NC3=NC4CS(=O)(=O)CC4S3)c2)cc1", "note": "(centres undefined)", "Potency": "inconclusive: 7.94 µM [inhibitor, partial curve, poor fit]"}
{"smiles": "O=C(COc1ccccc1-c1ccccc1)N/N=C/c1cccnc1", "Potency": "inconclusive: 12.6 µM [inhibitor, single point]"}
{"smiles": "CN1/C(=C\\C=C2/SC(=S)NC2=O)C(C)(C)c2ccccc21", "Potency": "inconclusive: 12.6 µM [inhibitor, partial curve, poor fit]"}
{"smiles": "CCOc1cc(N2CCOCC2)c(OCC)cc1NC(=O)c1cc(S(=O)(=O)N2CCOCC2)ccc1Cl", "Potency": "inconclusive: 7.08 µM [inhibitor, partial curve, poor fit]"}
{"smiles": "CCOc1ccc2c(c1)C(C)=CC(C)(C)N2S(=O)(=O)c1ccc(F)cc1", "Potency": "active: 8.91 µM"}
{"smiles": "COc1cc(C2C(C(=O)OC(C)C)=C(C)Nc3[nH]c(=O)[nH]c(=O)c32)ccc1O", "note": "(centres undefined)", "activity change, negative = inhibition": "inactive: 9.72%"}
{"smiles": "Cc1ccc(C(=O)Nc2nc(-c3ccccn3)cs2)s1", "Potency": "active: 4.47 µM"}
{"smiles": "CCCC(=O)N1CCN(c2nc3ccccc3s2)CC1", "Potency": "inconclusive: 4.47 µM [inhibitor, partial curve]"}
{"smiles": "Cc1cccc(-c2cnn(-c3ccccc3)c2N)c1", "Potency": "inconclusive: 0.501 µM [inhibitor, full curve]"}
{"smiles": "N#CC(c1ccccc1)N(CCCCl)C(=O)c1ccc(Br)cc1", "note": "(centres undefined)", "Potency": "inconclusive: 11.2 µM [inhibitor, single point]"}
{"smiles": "Cc1ccn2cc(-c3cccc(NC(=O)C(C)C)c3)nc2c1", "Potency": "inconclusive: 6.31 µM [inhibitor, partial curve, poor fit]"}
{"smiles": "CCCC[C@@H]1C=C(C(=O)O)[C@H](c2ccc(CC)cc2)N1S(=O)(=O)c1ccc(C)cc1", "Potency": "inconclusive: 3.55 µM [inhibitor, partial curve, poor fit]"}
{"smiles": "CC1CCN(CCc2nc3cc(NC(=O)COc4ccc(Cl)cc4)ccc3n2C)CC1", "Potency": "inconclusive: 7.94 µM [inhibitor, partial curve, poor fit]"}
{"smiles": "Cc1ccccc1-n1c(SC(C)C(=O)NCC2CCCO2)nnc1-c1ccncc1", "note": "(centres undefined)", "activity change, negative = inhibition": "inactive: 3.6%"}
{"smiles": "Cc1cc(C)cc(N(CC(=O)N2CCN(c3ccccc3)CC2)S(=O)(=O)c2c(C)noc2C)c1", "activity change, negative = inhibition": "inactive: 0.351%"}
{"smiles": "COc1ccc(C(CNC(=O)CCNS(=O)(=O)c2ccc(Br)cc2)N2CCOCC2)cc1", "note": "(centres undefined)", "Potency": "inconclusive: 12.6 µM [inhibitor, single point]"}
{"smiles": "NC(=O)c1ccsc1NC(=O)c1ccc(N2CCCC2=O)cc1", "Potency": "inconclusive: 3.16 µM [inhibitor, partial curve, poor fit]"}
{"smiles": "CCOC(=O)c1sc(NC(=O)c2ccc(C)o2)nc1C", "Potency": "inconclusive: 2.82 µM [inhibitor, partial curve, poor fit]"}
{"smiles": "COc1ccc(-c2cc3c(=O)n(CC(=O)NCCCN4CCC(Cc5ccccc5)CC4)ncn3n2)cc1", "Potency": "inconclusive: 2 µM [inhibitor, full curve, poor fit]"}
{"smiles": "O=C(COC(=O)CSc1ccc(Cl)cc1)Nc1ccccc1", "Potency": "inconclusive: 12.6 µM [inhibitor, single point]"}
